Data published in article PMC6590293.
These are yes or no findings as the source states them, for the method shown. Binding seen in cells or lysates may run through a third protein. Some entries that bind do so weakly or less than the wild type.

The chains behind the UniProt entries cited, without tags or fusion partners. Residues count along the entry.
UniProt P15941, residues 24-1255: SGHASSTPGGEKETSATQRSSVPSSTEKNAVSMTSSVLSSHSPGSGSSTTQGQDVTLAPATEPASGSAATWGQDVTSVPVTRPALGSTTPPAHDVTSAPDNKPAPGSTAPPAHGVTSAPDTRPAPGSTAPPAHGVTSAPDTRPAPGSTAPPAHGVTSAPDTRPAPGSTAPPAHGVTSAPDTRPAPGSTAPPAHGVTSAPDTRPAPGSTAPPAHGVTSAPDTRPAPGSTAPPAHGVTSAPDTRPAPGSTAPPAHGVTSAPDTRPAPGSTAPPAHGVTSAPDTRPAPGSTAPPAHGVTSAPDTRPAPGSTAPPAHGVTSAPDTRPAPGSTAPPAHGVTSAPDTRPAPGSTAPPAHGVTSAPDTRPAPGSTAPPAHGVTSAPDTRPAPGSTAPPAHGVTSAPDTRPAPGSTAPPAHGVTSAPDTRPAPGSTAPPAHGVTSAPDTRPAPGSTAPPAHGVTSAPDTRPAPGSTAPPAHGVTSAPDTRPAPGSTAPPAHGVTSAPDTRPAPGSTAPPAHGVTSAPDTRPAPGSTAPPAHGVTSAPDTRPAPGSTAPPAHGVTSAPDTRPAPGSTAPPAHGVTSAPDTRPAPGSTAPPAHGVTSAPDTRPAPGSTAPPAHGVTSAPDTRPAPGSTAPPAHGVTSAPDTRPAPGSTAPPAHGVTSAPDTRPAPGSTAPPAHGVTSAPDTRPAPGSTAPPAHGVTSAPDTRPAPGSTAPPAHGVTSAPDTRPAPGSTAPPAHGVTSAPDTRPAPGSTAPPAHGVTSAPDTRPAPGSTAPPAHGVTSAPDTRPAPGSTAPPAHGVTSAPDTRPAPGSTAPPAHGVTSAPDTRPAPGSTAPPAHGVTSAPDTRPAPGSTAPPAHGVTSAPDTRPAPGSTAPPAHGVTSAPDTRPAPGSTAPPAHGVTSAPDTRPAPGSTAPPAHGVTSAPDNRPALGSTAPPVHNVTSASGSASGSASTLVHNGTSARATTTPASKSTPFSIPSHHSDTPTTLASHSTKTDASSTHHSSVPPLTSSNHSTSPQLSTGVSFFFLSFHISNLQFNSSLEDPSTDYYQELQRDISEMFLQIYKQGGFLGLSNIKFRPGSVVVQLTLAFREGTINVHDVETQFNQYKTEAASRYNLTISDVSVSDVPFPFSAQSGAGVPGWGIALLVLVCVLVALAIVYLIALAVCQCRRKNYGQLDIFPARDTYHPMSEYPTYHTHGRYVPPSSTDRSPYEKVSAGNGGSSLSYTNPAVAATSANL
UniProt Q13546: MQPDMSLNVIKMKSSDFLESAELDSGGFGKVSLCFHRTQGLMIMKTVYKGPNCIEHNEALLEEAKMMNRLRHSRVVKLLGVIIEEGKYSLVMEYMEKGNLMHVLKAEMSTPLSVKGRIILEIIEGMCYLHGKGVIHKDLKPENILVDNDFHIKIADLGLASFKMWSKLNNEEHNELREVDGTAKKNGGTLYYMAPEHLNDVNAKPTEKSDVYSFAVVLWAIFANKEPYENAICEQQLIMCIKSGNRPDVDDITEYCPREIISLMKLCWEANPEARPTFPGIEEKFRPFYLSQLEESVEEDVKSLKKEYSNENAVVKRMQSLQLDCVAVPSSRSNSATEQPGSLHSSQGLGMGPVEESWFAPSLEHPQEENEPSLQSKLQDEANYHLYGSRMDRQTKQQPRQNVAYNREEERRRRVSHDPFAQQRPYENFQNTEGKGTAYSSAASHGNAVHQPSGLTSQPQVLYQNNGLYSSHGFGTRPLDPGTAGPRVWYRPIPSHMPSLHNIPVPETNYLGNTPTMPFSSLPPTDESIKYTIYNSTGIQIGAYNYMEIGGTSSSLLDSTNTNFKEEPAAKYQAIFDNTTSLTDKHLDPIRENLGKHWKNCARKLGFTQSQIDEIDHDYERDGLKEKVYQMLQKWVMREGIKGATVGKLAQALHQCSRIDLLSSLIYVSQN

Molecular target: MUC1 (mucin 1) (human (endogenous in 16HBE)) (UniProt P15941)
Experiment: co-IP; endogenous proteins in lysates of normal 16HBE cells, with or without TNF-α for 24 hr; lysates incubated overnight at 4°C with antibodies against RIPK1, RIPK3 or MUC1-CT or isotype-matched nonimmune IgG; protein A/G agarose beads, washed five times with lysis buffer; immunoblot

receptor-interacting protein kinase-1 (RIPK1) (from UniProt Q13546 1-671)
binding: binds
